PubChem BioAssay AID1259308 | NCATS | 2017
Purpose: 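Genes whose loss raises luciferase production in HEK293 cells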 (primary screen). System: human HEK293 embryonic kidney cells stably expressing firefly luciferase (HEK-CMV-Luc2-Hygro). Knock-down reagent: single siRNA against human genes, 0.8 pmol siRNA per well. Time to read-out: 72 h. Measurement: 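Reporter luminescence and viable-cell signal on separate replicate plates, given as percent of non-targeting control and median/MAD z-scores, plus per-cell luciferase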. Direction: total luciferase, z-score and total luciferase, % of control: higher = more reporter protein produced; luciferase per cell, z-score: higher = more reporter output per viable cell; viable cells, % of control: higher = more viable cells. Call rule: 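Active when the median/MAD z-score for overall luciferase is greater than 3; a gene was taken forward for validation with new siRNAs if at least two of its three siRNAs passed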. Meaning of the calls: active = raised luciferase; inactive = no rise.
Here is an unselected part of about 59,000 reagents tested. Of all reagents, about 1,510 (2.6%) got an active call. 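Calls use total luciferase alone and ignore viability, so some active siRNAs may act by altering cell number.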 The numbers tell different reagents against one gene apart.

no.	gene symbol	reagent no.	total luciferase, z-score	total luciferase, % of control	luciferase per cell, z-score	viable cells, % of control	call
1	MS4A12	1	0.00719	82	-0.316	99.6	inactive
2	MS4A12	2	-0.45	72.9	-0.993	106	inactive
3	MS4A12	3	0.832	98.4	0.672	92.2	inactive
4	OTX2	1	-0.501	71.9	-1.12	108	inactive
5	OTX2	2	0.0505	82.9	0.415	83	inactive
6	OTX2	3	-1.37	54.6	0.112	59.2	inactive
7	SPIRE1	1	3.23	146	2.74	79.5	active
8	SPIRE1	2	0.164	85.1	0.19	90.5	inactive
9	SPIRE1	3	0.162	85.1	1.81	59.1	inactive
10	HSPA1A	1	1.36	109	1.23	88.1	inactive
11	HSPA1A	2	1.79	117	1.7	83.9	inactive
12	HSPA1A	3	-0.00137	81.9	0.337	83.7	inactive
13	GON7	1	-0.192	78.1	-0.551	101	inactive
14	GON7	2	-0.422	73.5	-0.434	92.1	inactive
15	GON7	3	-1.19	58.3	-0.245	69.4	inactive
16	ODF1	1	0.699	95.8	0.91	84.2	inactive
17	ODF1	2	2.64	134	2.16	85	inactive
18	ODF1	3	0.23	86.5	0.303	89.2	inactive
19	CD3E	1	2.28	127	2.08	82.2	inactive
20	CD3E	2	0.0704	83.3	-0.14	96.6	inactive
21	CD3E	3	0.812	98	0.711	90.9	inactive
22	ZNF836	1	0.207	86	0.793	78	inactive
23	ZNF836	2	0.69	95.6	0.486	94	inactive
24	ZNF836	3	-0.324	75.4	-0.576	98.1	inactive
25	DDX53	1	-0.499	72	-1.11	108	inactive
26	DDX53	2	0.591	93.6	-0.0915	107	inactive
27	DDX53	3	-0.851	65	0.574	62.4	inactive
28	RAP1A	1	0.319	88.2	-0.0819	101	inactive
29	RAP1A	2	-0.635	69.2	-0.715	93.4	inactive
30	RAP1A	3	-0.12	79.5	-0.577	103	inactive

9 consecutive entries already listed, quoted:
no.	gene symbol	reagent no.	total luciferase, z-score	total luciferase, % of control	luciferase per cell, z-score	viable cells, % of control	call
18	ODF1	3	0.23	86.5	0.303	89.2	inactive
19	CD3E	1	2.28	127	2.08	82.2	inactive
20	CD3E	2	0.0704	83.3	-0.14	96.6	inactive
21	CD3E	3	0.812	98	0.711	90.9	inactive
22	ZNF836	1	0.207	86	0.793	78	inactive
23	ZNF836	2	0.69	95.6	0.486	94	inactive
24	ZNF836	3	-0.324	75.4	-0.576	98.1	inactive
25	DDX53	1	-0.499	72	-1.11	108	inactive
26	DDX53	2	0.591	93.6	-0.0915	107	inactive

The listing continues.
no.	gene symbol	reagent no.	total luciferase, z-score	total luciferase, % of control	luciferase per cell, z-score	viable cells, % of control	call
31	RAP1BL	1	0.878	99.3	0.792	90.1	inactive
32	RAP1BL	2	-0.101	79.9	-0.672	107	inactive
33	RAP1BL	3	0.52	92.2	0.248	96.5	inactive
34	EVC2	1	-0.672	68.5	-0.609	89.9	inactive
35	EVC2	2	0.228	86.4	0.748	79.3	inactive
36	EVC2	3	-0.719	67.6	-1.09	101	inactive
37	CPSF1	1	-1.82	45.7	-0.92	65.1	inactive
38	CPSF1	2	-0.327	75.4	-0.634	99.5	inactive
39	CPSF1	3	-0.664	68.7	1.8	47.8	inactive
40	CDON	1	1.89	119	1.18	97.9	inactive
41	CDON	2	0.159	85.1	-0.00814	95.2	inactive
42	CDON	3	-0.0303	81.3	-0.267	97.4	inactive
43	PPM1A	1	1.5	112	2.14	71	inactive
44	PPM1A	2	-0.941	63.2	0.436	62.9	inactive
45	PPM1A	3	-0.141	79.1	0.318	81.3	inactive
46	LOC339902	1	2.37	129	2.56	73.5	inactive
47	LOC339902	2	0.94	101	0.503	98.5	inactive
48	LOC339902	3	-0.716	67.6	-0.74	91.9	inactive
49	LRRC2	1	0.105	84	0.449	83.4	inactive
50	LRRC2	2	-1.14	59.2	-0.609	77.7	inactive
51	LRRC2	3	2.22	126	2.44	74	inactive
52	SIT1	1	1.28	107	1.55	79.8	inactive
53	SIT1	2	-0.099	79.9	-0.768	109	inactive
54	SIT1	3	-0.639	69.2	-0.987	100	inactive
55	MAGEB18	1	-0.00742	81.7	-0.787	112	inactive
56	MAGEB18	2	-0.698	68	-0.396	84.3	inactive
57	MAGEB18	3	-1.37	54.7	-1.11	81.9	inactive
